# Library screen at single concentrations

Chains of the proteins cited; added tags and fusions are not shown. Residues count along the entry.
UniProt A4I591, 1-473: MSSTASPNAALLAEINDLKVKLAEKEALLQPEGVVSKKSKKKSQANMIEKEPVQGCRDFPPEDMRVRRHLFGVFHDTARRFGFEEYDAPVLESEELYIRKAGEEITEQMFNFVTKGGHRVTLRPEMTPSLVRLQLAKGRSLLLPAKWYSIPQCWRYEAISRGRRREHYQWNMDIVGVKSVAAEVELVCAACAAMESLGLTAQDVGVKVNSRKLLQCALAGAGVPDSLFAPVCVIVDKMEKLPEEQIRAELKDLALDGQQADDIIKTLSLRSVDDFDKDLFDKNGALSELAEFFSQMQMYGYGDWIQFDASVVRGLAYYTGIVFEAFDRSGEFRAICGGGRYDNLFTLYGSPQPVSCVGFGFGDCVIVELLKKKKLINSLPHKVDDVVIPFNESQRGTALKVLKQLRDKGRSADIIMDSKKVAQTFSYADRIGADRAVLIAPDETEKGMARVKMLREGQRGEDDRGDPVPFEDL

Measurements from “University of Dundee, Small-Polar-MMV Screening Library” (2021), ChEMBL document CHEMBL3988442.

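Histidine-tRNA ligase, Leishmania infantum (UniProt A4I591). Enzyme assay of histidyl-tRNA synthetase; the read-out is not stated. Compounds at 30 µM. Higher reads as stronger inhibition (inferred: compounds with an IC50 in retests scored well above the rest). The assay is labelled LdHisRS but filed under L. infantum. Size under these conditions: about 69,000 compounds, about 410 of them at 50% or above in at least one test.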

Results are given as percent effect.
The record does not define 0% and 100%; most values in the screen are far below 50% and negative numbers occur (in some assays of this library far below -100).
This is an unselected part of the compounds tested.

| # | SMILES | effect |
|---|---|---|
| 1 | `CCc1ncc(C(=O)N(CCOC)Cc2nccs2)cn1` | 12.9 |
| 2 | `CCOC(=O)C1CCN(c2cc(C(=O)N3CCOCC3)nc(C)n2)CC1` | 8.929 |
| 3 | `Cc1nc(NCc2coc(-c3ccccc3)n2)cc(C2CCNCC2)n1` | -7.317 |
| 4 | `Cc1cnc(NC(=O)NCCOc2ncccc2Cl)s1` | 18.75 |
| 5 | `Cc1cnc2c(c1NCc1ccccn1)c(=O)n(C)c(=O)n2C` | 15.38 |
| 6 | `COc1ccc2c(c1)CC(NCc1cccc(NC(C)=O)c1)CC2` (stereo not given) | 43.59 |
| 7 | `CCN(CC)C(=O)c1cc(Br)cc(S(=O)(=O)N2CCOCC2)c1F` | 28.57 |
| 8 | `Cc1ccc(CN2CCCC2(C(N)=O)c2cnccn2)c(C)c1` (stereo not given) | 20.62 |
| 9 | `c1cc(-c2cnccn2)cc(-c2ccn(CCCN3CCCCC3)n2)c1` | 8.197 |
| 10 | `Cc1nn(C)cc1C1CC(=O)Nc2c1cnn2C(C)C` (stereo not given) | 7.609 |
| 11 | `CCNC(=O)c1nnn(Cc2ccccc2)c1OC` | 11.65 |
| 12 | `CC(=O)N1CCO[C@@H]2CN(C(=O)NCc3ccccc3)CC[C@@H]2C1` | 0.9091 |
| 13 | `O=C(NC1CCC1)C1CCC2(CN(C(=O)c3ccno3)C2)O1` (stereo not given) | 10.26 |
| 14 | `Cc1ccc(CN2CCc3c(nnn3C)C2COCc2ccccc2)s1` (stereo not given) | -5 |
| 15 | `Cn1cc(CCCNC(=O)NCC(O)c2ccsc2)cn1` (stereo not given) | 11.43 |
| 16 | `COCCN1CCC2(CC1)CN(C(=O)Cc1cccnc1)CCO2` | 11.54 |
| 17 | `Cc1ccc(CN2CCN(C3CCC3)CC2CCO)o1` (stereo not given) | 4.819 |
| 18 | `COc1nn(C)cc1C(=O)N1CCC(C)CC1` | 12.33 |
| 19 | `O=C(c1cc(=O)c(OCc2ccccc2)co1)N1CCSCC1` | -2.632 |
| 20 | `Cc1nnc(N2CCC(CN(C)C(C)C)CC2)c(C#N)c1C` | 29.33 |
| 21 | `Cc1nn(-c2ncnc3[nH]cnc23)c2c1C(CC(C)C)CC(=O)N2` (stereo not given) | 25.84 |
| 22 | `COCCC1(CNC(=O)NCC2CN(C)CCN2C)CCC1` (stereo not given) | 15.52 |
| 23 | `CCc1ccc2nc(C)cc(C(=O)N[C@@H]3CCCNC3)c2c1` | 17.65 |
| 24 | `CC(=O)N1CCCC1c1cncc(Oc2ccc(F)cc2)n1` (stereo not given) | 9.375 |
| 25 | `O=C(Cc1csc(-c2ccccc2F)n1)NCc1cccc(C(=O)O)c1` | 4.348 |
| 26 | `Cn1ccc(NC(=O)Cc2cccc(F)c2)n1` | 15.38 |
| 27 | `CC(C(=O)NC1CC1)S(=O)(=O)Cc1nc(Cc2ccccc2)no1` (stereo not given) | 20 |
| 28 | `CC(C)c1noc(C(C)N2CCN(Cc3noc(C(C)(C)C)n3)CC2)n1` (stereo not given) | 10.26 |
| 29 | `COc1ccc(F)c(F)c1CN1CCN(CC(C)C)C(=O)C1C` (stereo not given) | 15.05 |
| 30 | `CC(C)NC(=O)[C@H]1C[C@@H]2CN(C(=O)NCc3ccccc3)C[C@H]1O2` | 16.36 |
| 31 | `CCn1c(C(=O)N2CCN(CC[S+](C)[O-])CC2)cc2ccccc21` (stereo not given) | 21.15 |
| 32 | `CN(C)c1ccc(CNC2(c3ccc(F)cc3)CCOCC2)cc1F` | 0 |
| 33 | `CC1CCN(C(=O)Cc2ccc(S(=O)(=O)C(F)F)cc2)CC1` | 4.274 |
| 34 | `c1cnc(-c2nc(CN3CCn4c(nnc4C4CC4)C3)cs2)nc1` | -18.87 |
| 35 | `CNS(=O)(=O)c1cc(C(=O)NC2CCOc3ccccc32)cc(C)c1C` (stereo not given) | 5.714 |
| 36 | `CCNC(=O)NC(=O)CNC(C)(C)c1ccc2c(c1)OCO2` | 10.71 |
| 37 | `O=C(CC1CNCCO1)N1CCC(c2cc(N3CCCC3)ncn2)CC1` (stereo not given) | 27.14 |
| 38 | `COCCN1CC(O)CN(C(=O)c2cccc(C(F)(F)F)c2)CC1=O` (stereo not given) | 6.122 |
| 39 | `CN(C)c1ncnc2c1CCN(CC1CCCC1)CC2` | 12.03 |
| 40 | `CCc1noc(C(C)N(C)CC(=O)Nc2ccccc2Cl)n1` (stereo not given) | 12.35 |
| 41 | `Cc1nc2ccccc2c(=O)n1Cc1nnnn1C1CC1` | 11.43 |
| 42 | `CC(C)[C@@H]1CN(Cc2ccccc2C#N)C[C@H]1N(C)C` | 22.92 |
| 43 | `O=C(c1cccnc1)N1CCCC2(COCCN(c3ccccc3)C2)C1` (stereo not given) | 8.257 |
| 44 | `CN(C)CCNc1ncccc1CNC(=O)Nc1cc(F)cc(F)c1` | 2.521 |
| 45 | `Cc1nn(C)c2ncc(S(=O)(=O)N3CCN4CCCC4C3)cc12` (stereo not given) | 8 |
| 46 | `CC(c1cccnc1)N(C)Cc1ccccn1` (stereo not given) | 5.882 |
| 47 | `Cc1noc(C)c1CC(=O)N1CCc2sccc2C1` | 12.5 |
| 48 | `CN(CCc1ccccn1)[C@@H]1CCN(c2cccc(C#N)n2)C[C@H]1O` | 43.84 |
| 49 | `O=C1NC2(CCN(Cc3nccs3)CC2)CC1c1ccncc1` (stereo not given) | 29.41 |
| 50 | `CCC(Nc1nc(C2CCCC2)nc2c1cnn2C)c1ccncc1` (stereo not given) | 10.26 |
| 51 | `O=C(NCC1(Sc2ccccc2)CC1)c1cc[nH]n1` | 14.29 |
| 52 | `OC(CNCCn1cccn1)c1ccc2c(c1)OCCO2` (stereo not given) | 17.57 |
| 53 | `CC(C)Cc1ncc2c(n1)CN(c1cc(N)nc(N)n1)C2` | 17.14 |
| 54 | `Cc1ccc(C(=O)N(C)CCCc2cnn(C)c2)cc1N1CCNC1=O` | 8.434 |
| 55 | `CC(C)CN1CC(O)CN(S(=O)(=O)c2ccc(F)cc2)CC1=O` (stereo not given) | 14.29 |
| 56 | `COCc1nc2n(n1)CCCC2Nc1nc(C(C)C)ns1` (stereo not given) | 16.13 |
| 57 | `Cc1nn(C)cc1C(=O)NCc1csc(C2CC2)n1` | 14.61 |

The first 4 entries again:

| SMILES | effect |
|---|---|
| `CCc1ncc(C(=O)N(CCOC)Cc2nccs2)cn1` | 12.9 |
| `CCOC(=O)C1CCN(c2cc(C(=O)N3CCOCC3)nc(C)n2)CC1` | 8.929 |
| `Cc1nc(NCc2coc(-c3ccccc3)n2)cc(C2CCNCC2)n1` | -7.317 |
| `Cc1cnc(NC(=O)NCCOc2ncccc2Cl)s1` | 18.75 |